Experimental data published in paper PMC5510000.
Construct, isoform or probe ends are uncertain for at least one entry.

Chains of the proteins cited; added tags and fusions are not shown. A line that says so, or that is headed by a name, gives the form on record, which may keep a tag or linker.
RPA (full-length heterotrimer) (Homo sapiens), one chain, as listed by the source, chain 1 of 3: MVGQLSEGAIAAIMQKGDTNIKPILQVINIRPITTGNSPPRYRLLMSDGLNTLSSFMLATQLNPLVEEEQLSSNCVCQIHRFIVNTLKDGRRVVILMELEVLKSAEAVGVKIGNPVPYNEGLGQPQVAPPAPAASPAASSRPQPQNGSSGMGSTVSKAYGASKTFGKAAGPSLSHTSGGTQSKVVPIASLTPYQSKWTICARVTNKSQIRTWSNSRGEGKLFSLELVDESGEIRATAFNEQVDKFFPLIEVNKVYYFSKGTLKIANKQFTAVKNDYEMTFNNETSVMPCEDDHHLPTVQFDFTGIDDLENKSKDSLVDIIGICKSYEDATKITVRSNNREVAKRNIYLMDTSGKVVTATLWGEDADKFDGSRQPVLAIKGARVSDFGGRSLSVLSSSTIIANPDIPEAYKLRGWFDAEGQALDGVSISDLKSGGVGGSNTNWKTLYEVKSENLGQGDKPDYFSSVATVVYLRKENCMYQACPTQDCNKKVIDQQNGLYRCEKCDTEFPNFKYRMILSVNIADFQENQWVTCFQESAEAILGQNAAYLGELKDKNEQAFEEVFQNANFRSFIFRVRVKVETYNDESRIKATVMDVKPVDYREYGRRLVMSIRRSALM
RPA (full-length heterotrimer) (Homo sapiens), one chain, as listed by the source, chain 2 of 3: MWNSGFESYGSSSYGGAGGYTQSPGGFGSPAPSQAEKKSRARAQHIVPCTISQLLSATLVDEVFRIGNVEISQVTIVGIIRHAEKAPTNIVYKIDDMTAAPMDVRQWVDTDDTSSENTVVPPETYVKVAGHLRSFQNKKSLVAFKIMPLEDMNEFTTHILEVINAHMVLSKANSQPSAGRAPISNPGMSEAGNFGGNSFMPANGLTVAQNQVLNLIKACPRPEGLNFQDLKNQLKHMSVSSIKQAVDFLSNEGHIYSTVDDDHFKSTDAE
RPA (full-length heterotrimer) (Homo sapiens), one chain, as listed by the source, chain 3 of 3: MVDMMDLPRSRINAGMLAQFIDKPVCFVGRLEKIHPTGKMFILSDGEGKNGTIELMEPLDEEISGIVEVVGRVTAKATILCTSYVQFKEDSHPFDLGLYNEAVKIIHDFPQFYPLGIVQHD

Key:
[1] = tested on: RPA (full-length heterotrimer) (Homo sapiens); assay: fluorescence anisotropy; conditions: 1 mM MnCl2; RPA mixed 1:1 with 10 nM fluorescein-labelled DNA, 30 ul; recombinant protein
[2] = tested on: RPA (full-length heterotrimer) (Homo sapiens); assay: limited trypsin proteolysis; conditions: recombinant protein

ATAAATATTTTTTATTAATAATAGATCACCTTTCTTTCTCTTCTCCCCTT / TTCCCCTCCTCTCCTTCCTTCCTGATCTATTATTAATAAAAAATATTTAT / AAGGGGAGAAGAGAAAGAAAGG [fork + leading strand]
Kd [1]: 6 nM | binding result [2]: binds
